The experiment deals with neuropilin1 (Xenopus laevis (endogenous in cultured retinal explants)) (UniProt P28824). Briefly: proximity ligation; Duolink in situ PLA on fixed, permeabilised cultured retinal explants (RGC growth cones) from Xenopus embryos; pairs of mouse and rabbit primary antibodies; positive signal only when the two antibodies are within 40 nm.

Protein sequences, listed by entry. Tags and fused reporters are not part of them. Residues count along the entry.
UniProt P28824, residues 22-928: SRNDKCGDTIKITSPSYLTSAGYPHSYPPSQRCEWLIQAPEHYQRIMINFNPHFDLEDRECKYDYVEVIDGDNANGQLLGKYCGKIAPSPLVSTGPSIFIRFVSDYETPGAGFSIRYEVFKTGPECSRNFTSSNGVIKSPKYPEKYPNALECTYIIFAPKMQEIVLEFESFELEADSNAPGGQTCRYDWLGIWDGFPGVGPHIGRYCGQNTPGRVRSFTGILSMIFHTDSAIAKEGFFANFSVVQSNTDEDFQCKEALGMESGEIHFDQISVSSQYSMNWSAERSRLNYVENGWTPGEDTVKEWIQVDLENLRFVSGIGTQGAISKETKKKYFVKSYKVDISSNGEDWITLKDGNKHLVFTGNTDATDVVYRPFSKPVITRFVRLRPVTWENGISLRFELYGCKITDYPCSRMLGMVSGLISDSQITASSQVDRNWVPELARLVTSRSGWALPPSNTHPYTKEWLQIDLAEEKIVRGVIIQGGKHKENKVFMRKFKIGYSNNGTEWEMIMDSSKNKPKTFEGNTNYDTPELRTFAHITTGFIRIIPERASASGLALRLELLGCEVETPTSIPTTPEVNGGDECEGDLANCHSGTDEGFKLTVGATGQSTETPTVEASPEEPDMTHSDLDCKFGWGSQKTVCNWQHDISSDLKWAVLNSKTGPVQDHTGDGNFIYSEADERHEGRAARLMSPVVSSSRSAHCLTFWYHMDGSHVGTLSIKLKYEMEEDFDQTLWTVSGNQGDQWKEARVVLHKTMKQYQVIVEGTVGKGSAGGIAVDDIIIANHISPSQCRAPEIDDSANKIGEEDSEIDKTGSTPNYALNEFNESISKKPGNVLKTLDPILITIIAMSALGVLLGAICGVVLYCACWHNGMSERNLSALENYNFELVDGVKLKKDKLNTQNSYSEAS

These are yes or no findings as the source states them, for the method shown. In cells and extracts the contact can be indirect.

B1: lamin B2 (protein, UniProt P21910 1-623)
chain: MATTTPSRSTRSSMQSPARGTSTPLSPTRISRLQEKEELRHLNDRLAVYIDRVRALELENDRLMVKISEKEEVTTREVSGIKNLYESELADARKVLDETARERARLQIELGKFRSDLDELNKNYKKKDADLSTAQGRIKDLEALFHRSEAELGTALGEKRSLEAEVADLRAQLSKTEDAHRVAKKQLEKETLMRVDFENRMQSLQEEMDFRKNIYEEESRETRKRHERRIVEVDRGHHYDYESKLAQALDELRKQHDEQVKMYKEELEQTYQAKLDNIKRSSDHNDKAANTALEELTERRMRIETLGYQLSGLQKQANAAEERIRELEELLSSDRDKYRKLLDSKEREMAEMRDQMQQQLNEYQELLDVKLALDLEINAYRKLLEGEEERLKLSPSPESRVTVSRATSSSSSATRTSRSKRRRVEEEYEEGGASTGFGAGHSLGSSRITASEGSSRTITSGQSSTTRFHLSQQASATGSISIEEIDLEGKYVHLKNNSDKDQSLGNWRLKRKIGEEEEIVYKFTPKYVLKAGQSVKIYSADAGVAHSPPSILVWKNQSSWGTGSNIRTYLVNTEEEEVAVRTVTKSVLRNVEEEEDEDADFGEEDLFHQQGDPRTTSRGCSVM
As for B1, the binding entry is recorded as “no binding”.

The record behind these values is PMC3314965.
